The supplement of paper PMC10849652
The list shows a part of the results.

Amino acid sequences for entries named in this document (tags omitted). A change or cut given only in a name is not applied to a line headed by its entry.
UniProt P46527, whole entry, looked up: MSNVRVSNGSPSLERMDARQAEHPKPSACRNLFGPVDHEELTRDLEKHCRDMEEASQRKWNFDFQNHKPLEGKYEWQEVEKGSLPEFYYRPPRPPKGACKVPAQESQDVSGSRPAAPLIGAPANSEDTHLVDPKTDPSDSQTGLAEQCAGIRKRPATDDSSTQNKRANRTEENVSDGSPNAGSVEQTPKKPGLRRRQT
UniProt Q9BWU1: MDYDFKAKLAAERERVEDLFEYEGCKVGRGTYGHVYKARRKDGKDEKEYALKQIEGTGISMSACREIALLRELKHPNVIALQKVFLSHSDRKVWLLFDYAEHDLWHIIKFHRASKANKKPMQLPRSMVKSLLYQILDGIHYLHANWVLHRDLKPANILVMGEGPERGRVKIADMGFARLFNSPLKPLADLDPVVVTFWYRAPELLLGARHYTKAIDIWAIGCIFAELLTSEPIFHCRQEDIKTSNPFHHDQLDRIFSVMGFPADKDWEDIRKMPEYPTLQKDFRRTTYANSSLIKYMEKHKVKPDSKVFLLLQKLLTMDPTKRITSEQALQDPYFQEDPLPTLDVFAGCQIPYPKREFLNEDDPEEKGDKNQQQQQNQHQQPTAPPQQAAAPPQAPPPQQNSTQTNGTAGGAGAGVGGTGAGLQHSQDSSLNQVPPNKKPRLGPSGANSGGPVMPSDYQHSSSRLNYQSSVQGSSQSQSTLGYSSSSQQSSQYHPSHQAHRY
UniProt Q8N2Z9: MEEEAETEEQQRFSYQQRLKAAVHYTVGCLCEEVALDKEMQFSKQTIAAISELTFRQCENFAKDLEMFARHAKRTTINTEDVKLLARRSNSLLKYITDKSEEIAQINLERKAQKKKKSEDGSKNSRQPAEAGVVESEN
UniProt Q8WUX2: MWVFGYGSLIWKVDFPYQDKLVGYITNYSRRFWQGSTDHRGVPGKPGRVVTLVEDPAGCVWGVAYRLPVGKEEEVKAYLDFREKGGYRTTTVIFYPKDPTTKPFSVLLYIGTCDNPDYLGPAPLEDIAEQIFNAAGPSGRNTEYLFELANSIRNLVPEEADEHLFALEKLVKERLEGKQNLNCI
UniProt Q03701: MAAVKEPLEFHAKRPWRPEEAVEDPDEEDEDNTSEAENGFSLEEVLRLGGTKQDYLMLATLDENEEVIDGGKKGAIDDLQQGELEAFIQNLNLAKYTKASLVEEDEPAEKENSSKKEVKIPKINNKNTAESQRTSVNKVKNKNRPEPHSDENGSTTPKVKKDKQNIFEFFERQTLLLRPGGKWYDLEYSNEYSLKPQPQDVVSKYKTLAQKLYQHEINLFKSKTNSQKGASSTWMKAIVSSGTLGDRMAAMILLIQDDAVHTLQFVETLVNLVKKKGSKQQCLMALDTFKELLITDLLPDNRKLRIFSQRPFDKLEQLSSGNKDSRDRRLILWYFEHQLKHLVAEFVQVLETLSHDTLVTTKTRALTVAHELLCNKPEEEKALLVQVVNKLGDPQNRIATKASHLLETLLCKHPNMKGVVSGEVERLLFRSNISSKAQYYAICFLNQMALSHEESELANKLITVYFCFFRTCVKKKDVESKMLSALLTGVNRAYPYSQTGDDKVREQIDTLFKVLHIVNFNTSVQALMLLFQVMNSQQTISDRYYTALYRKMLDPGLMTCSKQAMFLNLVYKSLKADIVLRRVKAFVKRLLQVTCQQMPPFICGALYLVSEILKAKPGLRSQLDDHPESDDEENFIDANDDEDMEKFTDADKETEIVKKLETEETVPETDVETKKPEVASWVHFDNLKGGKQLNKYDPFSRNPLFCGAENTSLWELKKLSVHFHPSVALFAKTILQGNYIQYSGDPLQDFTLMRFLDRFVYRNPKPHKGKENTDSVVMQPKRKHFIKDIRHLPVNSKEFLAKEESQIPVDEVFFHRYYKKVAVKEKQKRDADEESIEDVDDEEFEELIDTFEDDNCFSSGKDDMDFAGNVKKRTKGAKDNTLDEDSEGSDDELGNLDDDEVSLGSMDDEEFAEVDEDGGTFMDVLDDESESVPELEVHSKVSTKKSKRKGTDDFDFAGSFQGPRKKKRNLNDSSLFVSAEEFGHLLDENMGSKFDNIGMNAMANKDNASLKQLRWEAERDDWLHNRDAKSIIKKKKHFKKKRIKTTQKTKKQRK
UniProt Q9Y5S2: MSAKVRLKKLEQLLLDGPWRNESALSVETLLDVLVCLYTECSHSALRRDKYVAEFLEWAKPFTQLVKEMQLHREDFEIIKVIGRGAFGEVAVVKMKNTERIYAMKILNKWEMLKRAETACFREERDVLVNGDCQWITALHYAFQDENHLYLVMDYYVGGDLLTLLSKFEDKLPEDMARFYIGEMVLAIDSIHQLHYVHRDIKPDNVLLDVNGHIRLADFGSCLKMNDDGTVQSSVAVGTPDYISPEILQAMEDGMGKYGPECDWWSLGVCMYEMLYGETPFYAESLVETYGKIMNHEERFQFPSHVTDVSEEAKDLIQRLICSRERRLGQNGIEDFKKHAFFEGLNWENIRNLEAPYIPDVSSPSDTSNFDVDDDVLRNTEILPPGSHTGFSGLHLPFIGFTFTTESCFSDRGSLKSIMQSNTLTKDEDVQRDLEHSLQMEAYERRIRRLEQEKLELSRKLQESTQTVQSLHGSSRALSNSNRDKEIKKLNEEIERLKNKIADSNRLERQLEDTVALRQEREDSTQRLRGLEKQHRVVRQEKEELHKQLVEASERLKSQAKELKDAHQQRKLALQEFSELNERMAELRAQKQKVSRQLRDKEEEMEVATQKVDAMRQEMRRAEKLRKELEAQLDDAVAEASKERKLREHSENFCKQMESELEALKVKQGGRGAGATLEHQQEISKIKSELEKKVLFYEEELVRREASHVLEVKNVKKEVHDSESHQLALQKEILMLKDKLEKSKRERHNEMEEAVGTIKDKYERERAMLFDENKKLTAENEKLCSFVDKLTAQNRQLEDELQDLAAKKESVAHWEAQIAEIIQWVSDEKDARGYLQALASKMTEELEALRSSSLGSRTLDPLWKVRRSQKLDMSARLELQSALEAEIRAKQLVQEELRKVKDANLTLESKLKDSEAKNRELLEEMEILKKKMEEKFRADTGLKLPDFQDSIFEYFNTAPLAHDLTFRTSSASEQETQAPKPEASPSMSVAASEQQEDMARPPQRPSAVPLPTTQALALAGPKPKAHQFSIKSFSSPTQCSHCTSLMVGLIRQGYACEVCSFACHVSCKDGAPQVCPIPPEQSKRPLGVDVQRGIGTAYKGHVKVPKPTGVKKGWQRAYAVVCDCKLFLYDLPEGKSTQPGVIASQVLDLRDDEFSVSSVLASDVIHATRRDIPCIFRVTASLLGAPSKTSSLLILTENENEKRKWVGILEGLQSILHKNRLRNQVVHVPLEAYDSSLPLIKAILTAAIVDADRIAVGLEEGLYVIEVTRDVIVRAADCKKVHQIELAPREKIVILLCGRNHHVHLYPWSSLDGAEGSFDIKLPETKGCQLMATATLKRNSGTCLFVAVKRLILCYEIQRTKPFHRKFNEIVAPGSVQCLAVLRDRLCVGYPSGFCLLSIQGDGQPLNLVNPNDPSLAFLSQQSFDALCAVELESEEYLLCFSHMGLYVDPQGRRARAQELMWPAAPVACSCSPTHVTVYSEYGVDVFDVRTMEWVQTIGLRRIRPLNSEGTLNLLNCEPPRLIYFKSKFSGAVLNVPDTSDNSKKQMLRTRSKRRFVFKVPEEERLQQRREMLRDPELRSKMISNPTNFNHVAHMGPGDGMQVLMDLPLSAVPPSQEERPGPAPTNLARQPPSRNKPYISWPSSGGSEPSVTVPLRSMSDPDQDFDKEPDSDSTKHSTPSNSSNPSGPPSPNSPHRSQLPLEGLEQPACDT
UniProt Q711Q0: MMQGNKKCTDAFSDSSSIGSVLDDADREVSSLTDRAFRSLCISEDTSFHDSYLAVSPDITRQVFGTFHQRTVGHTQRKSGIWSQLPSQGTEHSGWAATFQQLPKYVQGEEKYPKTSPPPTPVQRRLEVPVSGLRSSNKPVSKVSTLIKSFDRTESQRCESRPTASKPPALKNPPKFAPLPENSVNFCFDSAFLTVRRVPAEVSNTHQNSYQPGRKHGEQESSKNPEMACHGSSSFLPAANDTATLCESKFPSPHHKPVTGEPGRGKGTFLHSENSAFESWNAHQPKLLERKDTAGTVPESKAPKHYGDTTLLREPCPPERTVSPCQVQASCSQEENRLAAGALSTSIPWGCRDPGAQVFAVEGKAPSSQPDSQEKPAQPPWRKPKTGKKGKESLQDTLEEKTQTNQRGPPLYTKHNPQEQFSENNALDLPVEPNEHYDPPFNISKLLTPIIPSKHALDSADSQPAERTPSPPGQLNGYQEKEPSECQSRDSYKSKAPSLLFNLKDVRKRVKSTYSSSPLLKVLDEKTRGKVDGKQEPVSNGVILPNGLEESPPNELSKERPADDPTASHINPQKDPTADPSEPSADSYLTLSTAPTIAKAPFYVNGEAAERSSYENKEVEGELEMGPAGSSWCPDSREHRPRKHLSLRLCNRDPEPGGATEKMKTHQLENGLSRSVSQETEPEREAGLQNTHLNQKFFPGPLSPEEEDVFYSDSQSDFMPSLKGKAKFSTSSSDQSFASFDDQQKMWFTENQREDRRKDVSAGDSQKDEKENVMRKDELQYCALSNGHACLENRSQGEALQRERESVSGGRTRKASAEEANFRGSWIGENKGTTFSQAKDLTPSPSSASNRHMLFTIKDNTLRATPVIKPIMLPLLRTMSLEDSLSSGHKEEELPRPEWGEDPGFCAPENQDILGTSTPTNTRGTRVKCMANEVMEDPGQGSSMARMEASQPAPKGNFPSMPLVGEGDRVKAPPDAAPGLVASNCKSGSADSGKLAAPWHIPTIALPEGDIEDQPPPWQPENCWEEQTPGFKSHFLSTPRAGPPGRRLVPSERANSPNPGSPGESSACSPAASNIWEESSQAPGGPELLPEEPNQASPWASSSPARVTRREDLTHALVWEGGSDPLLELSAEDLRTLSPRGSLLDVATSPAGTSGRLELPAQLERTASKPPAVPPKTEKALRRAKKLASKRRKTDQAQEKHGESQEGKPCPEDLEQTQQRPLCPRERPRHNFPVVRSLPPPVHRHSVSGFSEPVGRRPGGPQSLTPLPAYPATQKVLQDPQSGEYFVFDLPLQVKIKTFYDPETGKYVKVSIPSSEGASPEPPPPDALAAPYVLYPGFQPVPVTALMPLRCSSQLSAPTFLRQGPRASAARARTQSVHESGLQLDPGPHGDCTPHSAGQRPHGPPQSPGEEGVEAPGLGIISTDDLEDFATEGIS
UniProt P42773: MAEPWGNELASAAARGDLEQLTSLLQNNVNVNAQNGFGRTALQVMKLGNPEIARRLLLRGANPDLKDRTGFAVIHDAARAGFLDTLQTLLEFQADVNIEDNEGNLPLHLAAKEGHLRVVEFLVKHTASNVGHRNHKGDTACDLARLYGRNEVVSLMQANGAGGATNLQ
UniProt Q9NRR3: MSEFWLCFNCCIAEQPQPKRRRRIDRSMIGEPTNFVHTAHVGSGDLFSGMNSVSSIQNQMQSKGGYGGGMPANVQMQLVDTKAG
UniProt Q9UEE9, whole entry, looked up: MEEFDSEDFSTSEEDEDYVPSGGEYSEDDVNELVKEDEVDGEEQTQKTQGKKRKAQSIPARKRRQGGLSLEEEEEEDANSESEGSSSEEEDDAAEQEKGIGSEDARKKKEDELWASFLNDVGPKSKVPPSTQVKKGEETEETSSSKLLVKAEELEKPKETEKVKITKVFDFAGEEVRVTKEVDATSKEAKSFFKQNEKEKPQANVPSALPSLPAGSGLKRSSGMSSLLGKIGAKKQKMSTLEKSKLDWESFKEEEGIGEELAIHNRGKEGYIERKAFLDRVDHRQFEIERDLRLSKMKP
UniProt O14519: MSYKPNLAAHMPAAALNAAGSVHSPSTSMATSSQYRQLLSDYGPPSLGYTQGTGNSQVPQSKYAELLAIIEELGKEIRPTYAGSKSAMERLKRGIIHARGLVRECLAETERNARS
UniProt Q6IPU0: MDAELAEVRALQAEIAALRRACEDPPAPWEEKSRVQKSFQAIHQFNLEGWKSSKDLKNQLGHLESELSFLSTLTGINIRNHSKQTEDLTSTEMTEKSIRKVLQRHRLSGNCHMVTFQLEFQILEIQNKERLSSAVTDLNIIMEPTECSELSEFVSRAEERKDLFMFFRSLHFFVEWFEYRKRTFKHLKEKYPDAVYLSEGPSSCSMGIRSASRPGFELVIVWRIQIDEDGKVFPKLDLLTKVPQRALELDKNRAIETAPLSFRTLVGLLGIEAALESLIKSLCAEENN
UniProt P49918: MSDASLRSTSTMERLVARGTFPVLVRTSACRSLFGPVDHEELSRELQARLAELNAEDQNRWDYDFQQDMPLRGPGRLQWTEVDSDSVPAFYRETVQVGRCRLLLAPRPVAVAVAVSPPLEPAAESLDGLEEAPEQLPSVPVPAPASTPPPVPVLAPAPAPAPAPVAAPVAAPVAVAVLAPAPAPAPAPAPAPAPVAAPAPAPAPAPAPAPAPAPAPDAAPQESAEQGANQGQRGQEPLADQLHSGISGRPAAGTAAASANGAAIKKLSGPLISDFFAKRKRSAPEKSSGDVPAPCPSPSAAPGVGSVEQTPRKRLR

Assays:
Assay in all cases: log2 fold change, soluble protein after heating vs DMSO (PISA); higher = thermal stabilisation; K562 lysate, 10 uM; active = over 0.2 and 3.5 SD of the protein, either way, in both replicates (recomputed)
erlotinib = compound: C#Cc1cccc(Nc2ncnc3cc(OCCOC)c(OCCOC)cc23)c1 [erlotinib]
Summary of the method: (§1)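 Quantification was by TMTpro 16plex LC-MS/MS with equalised channel sums, applied to the supernatant after 21,000xg for 90 min. Samples were crude K562 extract at 1 mg/mL protein in PBS pH 7.4 with 1 mM MgCl2, treated with 10 μM compound for 30 min, heated for 3 min across 48°C-58°C, pooled and brought to 0.5% NP-40 at 4°C. Values are log-two fold changes in thermal stability relative to solvent controls, from duplicates.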

[1] = compound: C/C(=N\NC(=O)C1=CC(=CC=C1)S(=O)(=O)N2CCOCC2)/C3=C(C=CC(=C3)Cl)O
Summary of the method: as §1

[2] = compound: C1=CC(=CC=C1C2=NC3=C(N2)C=C(C=C3)C(=O)N)OC4=CC=C(C=C4)Cl
Summary of the method: as §1

[3] = compound: C1=CC2=C(C=CC(=C2)/C=C\3/C(=O)NC(=NCC4=CC=CS4)S3)N=C1
Summary of the method: as §1

[4] = compound: C1=CC2=NC=CN=C2C=C1/C=C/3\C(=O)NC(=O)S3
Summary of the method: as §1

[5] = compound: C1=CC=C(C=C1)C2=NC(=C(N2)C3=CC=NC=C3)C4=CC(=C(C=C4)Cl)O
Summary of the method: as §1

[6] = compound: C1=CC=C2C(=C1)C3=NNC4=CC=CC(=C43)C2=O
Summary of the method: as §1

[7] = compound: C1CCN(C1)C(=O)NC2=CC=CC(=C2)NC3=NC=C(C(=N3)NCCC4=CN=CN4)Br
Summary of the method: as §1

[8] = compound: C1CN(CCC1(CC2=CC=C(C=C2)Cl)N)C3=NC=NC4=C3C=CN4
Summary of the method: as §1

IRAK-1-4 Inhibitor I = compound: C1COCCN1CCN2C3=CC=CC=C3N=C2NC(=O)C4=CC(=CC=C4)[N+](=O)[O-] [IRAK-1-4 Inhibitor I]
Summary of the method: as §1

Measured: log2 fold change

CDKN1B (UniProt P46527)
inactive: erlotinib -0.079 | [1] -0.067 | [2] 0.011 | [3] 0.012 | [4] 0.026 | [5] -0.038 | [6] 0.03 | [7] 0.045 | [8] 0.003 | IRAK-1-4 Inhibitor I -0.086

CDC34 (UniProt P49427)
inactive: erlotinib 0.005 | [1] -0.081 | [2] -0.069 | [3] -0.004 | [4] 0.03 | [5] -0.025 | [6] 0.002 | [7] 0.07 | [8] 0.019 | IRAK-1-4 Inhibitor I -0.071

CDK11B (UniProt P21127)
inactive: erlotinib 0.01 | [1] 0.025 | [2] -0.029 | [3] 0.008 | [4] -0.018 | [5] 0.017 | [6] -0.049 | [7] -0.016 | [8] -0.003 | IRAK-1-4 Inhibitor I -0.021

CEP76 (UniProt Q8TAP6)
inactive: erlotinib 0.005 | [1] -0.033 | [2] 0.012 | [3] 0.053 | [4] -0.072 | [5] -0.003 | [6] 0.052 | [7] -0.002 | [8] 0 | IRAK-1-4 Inhibitor I 0.056

CDC5L (UniProt Q99459)
inactive: erlotinib -0.002 | [1] -0.013 | [2] -0.034 | [3] -0.015 | [4] -0.001 | [5] 0.023 | [6] 0.033 | [7] 0.012 | [8] -0.03 | IRAK-1-4 Inhibitor I -0.012

CDC20 (UniProt Q12834)
inactive: erlotinib 0.017 | [1] -0.537 | [2] 0 | [3] 0.019 | [4] -0.094 | [5] 0.056 | [6] 0.106 | [7] -0.091 | [8] 0.071 | IRAK-1-4 Inhibitor I -0.001

CFAP410 (UniProt O43822)
inactive: erlotinib -0.079 | [1] 0.107 | [2] 0.047 | [3] -0.08 | [4] 0 | [5] 0.015 | [6] 0.006 | [7] 0.054 | [8] -0.052 | IRAK-1-4 Inhibitor I 0.103

CDK19 (UniProt Q9BWU1)
inactive: erlotinib 0.007 | [1] -0.272 | [2] 0.024 | [3] 0.098 | [4] 0.039 | [5] -0.015 | [6] 0.254 | [7] -0.075 | [8] -0.051 | IRAK-1-4 Inhibitor I -0.019

CENPS (UniProt Q8N2Z9)
inactive: erlotinib -0.029 | [1] -0.039 | [2] 0.034 | [3] -0.023 | [4] -0.004 | [5] 0.03 | [6] 0.043 | [7] 0.008 | [8] 0.023 | IRAK-1-4 Inhibitor I -0.018

CHAC2 (UniProt Q8WUX2)
inactive: erlotinib 0.019 | [1] 0.097 | [2] 0.049 | [3] 0.022 | [4] -0.023 | [5] 0.055 | [6] -0.012 | [7] 0.032 | [8] 0.044 | IRAK-1-4 Inhibitor I -0.038

CEP135 (UniProt Q66GS9)
inactive: erlotinib 0.034 | [1] -0.029 | [2] 0.065 | [3] -0.047 | [4] 0.031 | [5] 0.002 | [6] 0.024 | [7] -0.035 | [8] 0.042 | IRAK-1-4 Inhibitor I 0.02

CEBPZ (UniProt Q03701)
inactive: erlotinib 0.028 | [1] 0.038 | [2] -0.018 | [3] -0.007 | [4] 0.039 | [5] -0.012 | [6] 0.068 | [7] 0.012 | [8] 0.023 | IRAK-1-4 Inhibitor I 0.001

CDC42BPA isoform 6 (UniProt Q5VT25)
inactive: erlotinib -0.007 | [1] 0.077 | [2] -0.086 | [3] 0.011 | [4] -0.012 | [5] -0.029 | [6] -0.09 | [7] -0.032 | [8] -0.006 | IRAK-1-4 Inhibitor I -0.038

CDC42BPB (UniProt Q9Y5S2)
inactive: erlotinib 0.001 | [1] -0.016 | [2] 0.044 | [3] -0.14 | [4] 0.001 | [5] 0.013 | [6] -0.005 | [7] -0.009 | [8] -0.089 | IRAK-1-4 Inhibitor I 0.075

CEFIP (UniProt Q711Q0)
inactive: erlotinib 0 | [1] -0.016 | [2] -0.06 | [3] -0.118 | [4] 0.048 | [5] 0.168 | [6] 0.048 | [7] -0.066 | [8] 0.071 | IRAK-1-4 Inhibitor I 0.073

CDC25C (UniProt P30307)
inactive: erlotinib 0.007 | [1] -0.157 | [2] -0.061 | [3] 0.042 | [4] -0.031 | [5] 0.026 | [6] -0.148 | [7] -0.035 | [8] -0.058 | IRAK-1-4 Inhibitor I -0.039

CENPF (UniProt P49454)
inactive: erlotinib 0.008 | [1] 0.014 | [2] 0.004 | [3] 0.033 | [4] -0.032 | [5] 0.014 | [6] -0.013 | [7] -0.005 | [8] 0.047 | IRAK-1-4 Inhibitor I -0.002

CDKN2C (UniProt P42773)
inactive: erlotinib 0.028 | [1] -0.017 | [2] -0.035 | [3] 0.042 | [4] 0.008 | [5] 0.001 | [6] -0.034 | [7] -0.028 | [8] 0.168 | IRAK-1-4 Inhibitor I -0.018

CDC42SE2 (UniProt Q9NRR3)
inactive: erlotinib 0 | [1] 0.018 | [2] -0.014 | [3] 0.122 | [4] -0.036 | [5] 0.065 | [6] -0.119 | [7] 0.051 | [8] 0.063 | IRAK-1-4 Inhibitor I 0.053

CDCA3 (UniProt Q99618)
inactive: erlotinib -0.026 | [1] -0.05 | [2] 0.021 | [3] -0.04 | [4] -0.014 | [5] 0.002 | [6] 0.043 | [7] -0.011 | [8] -0.005 | IRAK-1-4 Inhibitor I 0.044

CDC73 (UniProt Q6P1J9)
inactive: erlotinib 0.033 | [1] -0.048 | [2] 0.022 | [3] 0.014 | [4] -0.047 | [5] 0.002 | [6] -0.032 | [7] -0.038 | [8] 0.016 | IRAK-1-4 Inhibitor I -0.038

CEP152 (UniProt O94986)
inactive: erlotinib -0.011 | [1] -0.043 | [2] 0.142 | [3] -0.1 | [4] 0.139 | [5] 0.099 | [6] 0.123 | [7] -0.07 | [8] 0.073 | IRAK-1-4 Inhibitor I 0.086

CFDP1 (UniProt Q9UEE9)
inactive: erlotinib -0.027 | [1] -0.023 | [2] 0.067 | [3] -0.024 | [4] -0.02 | [5] -0.004 | [6] 0.033 | [7] -0.03 | [8] 0.011 | IRAK-1-4 Inhibitor I -0.017

CEP290 (UniProt O15078)
inactive: erlotinib -0.06 | [1] -0.036 | [2] -0.079 | [3] -0.04 | [4] 0.047 | [5] -0.156 | [6] 0.016 | [7] 0 | [8] -0.029 | IRAK-1-4 Inhibitor I 0.044

CETN3 (UniProt O15182)
inactive: erlotinib 0.003 | [1] -0.048 | [2] 0.019 | [3] -0.053 | [4] -0.095 | [5] 0.001 | [6] -0.01 | [7] 0.013 | [8] -0.031 | IRAK-1-4 Inhibitor I 0.052

Two neighbouring records out of the list so far:
CFDP1 (UniProt Q9UEE9)
inactive: erlotinib -0.027 | [1] -0.023 | [2] 0.067 | [3] -0.024 | [4] -0.02 | [5] -0.004 | [6] 0.033 | [7] -0.03 | [8] 0.011 | IRAK-1-4 Inhibitor I -0.017

CEP290 (UniProt O15078)
inactive: erlotinib -0.06 | [1] -0.036 | [2] -0.079 | [3] -0.04 | [4] 0.047 | [5] -0.156 | [6] 0.016 | [7] 0 | [8] -0.029 | IRAK-1-4 Inhibitor I 0.044

Going on with the list:

CDK2AP2 (UniProt O75956)
inactive: erlotinib 0.053 | [1] 0.042 | [2] 0.105 | [3] -0.005 | [4] -0.015 | [6] 0.078

CDK2AP1 (UniProt O14519)
inactive: erlotinib 0.039 | [1] -0.082 | [2] -0.066 | [3] 0.024 | [4] 0.022 | [5] -0.085 | [6] -0.032 | [7] 0.129 | [8] 0.079 | IRAK-1-4 Inhibitor I 0.011

CENPP (UniProt Q6IPU0)
inactive: erlotinib -0.007 | [1] -0.085 | [2] -0.148 | [3] -0.121 | [5] -0.011 | [6] 0.025 | [7] -0.039 | [8] -0.007 | IRAK-1-4 Inhibitor I 0.066

CDKN1C (UniProt P49918)
inactive: erlotinib -0.021 | [1] 0.34 | [2] -0.015 | [3] -0.159 | [4] 0.065 | [5] -0.032 | [7] 0.053 | [8] 0.009 | IRAK-1-4 Inhibitor I 0.069
active: [6] -0.461

CDK16 isoform 2 (UniProt Q00536)
inactive: erlotinib -0.061 | [1] 0.002 | [2] 0.016 | [3] 0 | [4] -0.005 | [5] -0.017 | [6] 0.151 | [7] 0.004 | [8] -0.007 | IRAK-1-4 Inhibitor I 0.03
